From PubChem BioAssay AID504444 (National Center for Advancing Translational Sciences (NCATS), 2011)
Hit rate of the full screen: of about 360,000 compounds, about 7,500 (2.1%) were called active. Inconclusive results, whose numbers are uncertain, are shown with a selection of clear calls. The call rests on the fitted dose curve; in most records, active means well fitted inhibition curve with a large enough effect; inconclusive means small, poorly fitted or top-dose-only effect, or effect the other way; inactive means flat fitted curve, though single readings scatter. Potencies beside an inconclusive call are fits to weak or partial responses and may not hold up.

Experiment: Nrf2 qHTS screen for inhibitors; further: nearly all actives have a fitted effect of over 60% in size
Details: A549 ARE-Fluc reporter, luciferase luminescence, 18-24 h; series mostly up to 46 µM
Summary of the method: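 Concentration-response testing used A549 ARE_Fluc cells at 5000 cells/well. Following an 18-24 h compound incubation, viability was read by fluorescence (Ex 405/Em 525) and luciferase output by luminescence.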
Potency means the concentration at half of the fitted maximal effect.

SMILES | Potency
Cc1ccc(C(=O)NCCOc2cccc(C)c2)cc1 | inconclusive: 1.84 µM [activator, full curve, poor fit]
CCn1c(COc2cccc(C)c2C)nnc1SCC(=O)N1CCN(c2ccc(OC)cc2)CC1 | active: 9.2 µM
CCc1ccc(C2=C(C)C(N3CCC(C(=O)NCCc4ccco4)CC3)=NS2(=O)=O)cc1 | inconclusive: 29.1 µM [falling, single point]
CCCN1CNc2c(c(=O)[nH]c(=S)n2CCc2cccc(Cl)c2)C1 | inactive
O=C(NCC1CCCO1)NC1(C(F)(F)F)Oc2ccccc2O1 (stereo not given) | inconclusive: 23.1 µM [activator, single point]
COc1ccc(N2CCN(C(CNC(=O)C(=O)NC3CCCC3)c3ccco3)CC2)cc1 (stereo not given) | inactive
O=C(CN1C(=O)NC2(CCCCCC2)C1=O)c1ccc2c(c1)OCCO2 | inconclusive: 3.26 µM [activator, partial curve, poor fit]
COc1ccccc1-c1nnc(SCC(=O)c2ccc(F)cc2)n1-c1ccccc1 | inactive
O=C(Nc1cccc(Cl)c1)C1CCCN1S(=O)(=O)c1cccc2cccnc12 (stereo not given) | inconclusive: 29.1 µM [falling, single point]
Cn1nnnc1SCCNCc1ccc(OCc2ccc(Cl)cc2)cc1 | inconclusive: 25.9 µM [activator, single point]
COC(=O)N1C(=O)[C@](Cc2ccccc2)(c2ccccc2)N1C(=O)OC | inconclusive: 23.1 µM [falling, single point]
CCOc1ccc(S(=O)(=O)Nc2ccc(F)cc2)c(C)c1C | active: 18.4 µM
Cc1cc(NC(=O)c2ccc(NC(=O)C(C)Oc3ccccc3)cc2)no1 (stereo not given) | inactive
Cc1ccc2nc(Nc3ccc4[nH]c(=O)[nH]c4c3)c(-n3nc(C)cc3C)nc2c1 | inconclusive: 3.66 µM [activator, partial curve, poor fit]
CC(C)(C)C(=O)NCCCc1nc2ccccc2n1CCCOc1ccc(Cl)cc1 | active: 23.1 µM
C=Cc1ccc(Cn2c(=O)cc(C)c3c(C)nn(C)c32)cc1 | inconclusive: 29.1 µM [falling, single point]
CCCCn1c(/N=C/c2ccccc2NS(=O)(=O)c2ccc(C)cc2)nc2ccccc21 | inactive
CCN(CC)C(=O)c1nn(-c2ccc(OC)cc2)c(=O)c2c(N)scc12 | inactive
CN(C)CCCN(C(=O)CCc1ccccc1)c1nc2c(F)cccc2s1 | inconclusive: 0.164 µM [activator, full curve, poor fit]
O=C(NCCc1c[nH]c2ccccc12)Nc1cccc2ccccc12 | inconclusive: 23.1 µM [falling, single point]
COc1ccc(S(=O)(=O)c2cn(Cc3ccccc3)c3ccc(OC)cc3c2=O)cc1 | inconclusive: 14.6 µM [falling, single point]
O=C(/C=C/c1cccc(F)c1)c1ccc(N2CCOCC2)cc1 | inactive
CC1C(=O)N2CCCc3cc(NC(=O)c4ccccc4C(F)(F)F)cc1c32 (stereo not given) | inconclusive: 29.1 µM [falling, single point]

SMILES | Potency
COc1cc([N+](=O)[O-])cc(/C=N/NC(=O)CSc2ccccn2)c1O | inconclusive: 16.4 µM [falling, partial curve, poor fit]
O=C(C[n+]1ccc(-c2nnc3n2CCC3)cc1)c1ccc(Cl)cc1 | inactive
CCOc1ccccc1CN1CCNC(=O)C1CC(=O)NCCN1CCOC1=O (stereo not given) | inconclusive: 2.59 µM [activator, full curve, poor fit]
Cc1ccc(S(=O)(=O)N(Cc2ccccc2)c2ccccc2C(=O)N2CCCCC2)cc1 | inconclusive: 10.3 µM [activator, partial curve, poor fit]
Cc1ccc(S(=O)(=O)Oc2ccc(N3C(=O)C4C5CCC(C5)C4C3=O)cc2)cc1 (stereo not given) | inconclusive: 20.6 µM [falling, single point]
COc1ccccc1C(=O)Nc1cccc2cccnc12 | inconclusive: 18.4 µM [activator, partial curve]
CCCCOc1cccc(C(=O)NC(=S)Nc2cccnc2)c1 | inactive
Cc1cc2ncn(-c3ncccc3[N+](=O)[O-])c2cc1C | inconclusive: 23.1 µM [activator, single point]
CC(=O)c1sc(NC(=O)c2cccc(C)c2)nc1C | inconclusive: 3.26 µM [activator, full curve]
CCOC(=O)c1ccccc1NC(=O)c1ccc(N(C)S(C)(=O)=O)cc1 | inconclusive: 14.6 µM [falling, partial curve, poor fit]
O=C(Cc1cccs1)Nc1ccc(Cl)c(S(=O)(=O)N2CCOCC2)c1 | active: 16.4 µM
COC(=O)c1cccc(-n2nnnc2SCC(=O)Nc2nc3c(s2)CCCC3)c1 | inconclusive: 9.2 µM [activator, partial curve, poor fit]
COc1c(N)c2c(c([N+](=O)[O-])c1OC)C(=O)OC2 | inconclusive: 3.66 µM [falling, single point]
C=CCn1c(NC(=O)c2ccc(Br)o2)c(S(=O)(=O)c2ccccc2)c2nc3ccccc3nc21 | inconclusive: 11.6 µM [falling, partial curve, poor fit]
Cc1ccccc1NC(=O)NC1(C(=O)NCCCN2CCOCC2)CCCCC1 | inactive
CSc1ccc2[nH]c(=O)cc(C)c2c1 | inactive
COc1ccc(OC)c(NC(=O)CCc2nc(-c3ccc(C)cc3)no2)c1 | inactive
O=C(Nc1ccc(OC(F)(F)F)cc1)Oc1ccccc1N1CCCCC1 | inactive
COC(=O)c1sc(N2C(=O)C(O)=C(C(=O)c3ccc(C)o3)C2c2ccc(F)cc2)nc1C (stereo not given) | inconclusive: 23.1 µM [falling, partial curve, poor fit]
COc1ccc(Cl)cc1NC(=O)CN(C)CC(=O)Nc1c(C)n(C)n(-c2ccccc2)c1=O | inactive
Cn1cccc1-c1nc2ccc([N+](=O)[O-])cc2[nH]1 | inconclusive: 20.6 µM [activator, partial curve]
Cc1ccccc1-c1nnc(-c2ccc(Br)cc2)o1 | inconclusive: 23.1 µM [activator, partial curve]

Quoted from the listing:
Potency, Cn1cccc1-c1nc2ccc([N+](=O)[O-])cc2[nH]1 is entered as inconclusive: 20.6 µM [activator, partial curve]
Potency, CCOc1ccccc1CN1CCNC(=O)C1CC(=O)NCCN1CCOC1=O (stereo not given) is entered as inconclusive: 2.59 µM [activator, full curve, poor fit]
